# PubChem BioAssay AID1224826 | NIAID – 2016
# Test: 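Knock-downs that raise or lower Tnf reporter signal after endotoxin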 (primary screen)
# Cell system: RAW264.7 G9 macrophages from mouse bearing reporters for p65 (GFP) and the Tnf promoter (mCherry)
# Reagent: siRNA pool against mouse genes, 100 nM
# Duration: 16 h of LPS stimulation, after 2 days of siRNA transfection
# Conditions: bacterial lipopolysaccharide (Salmonella minnesota R595), 10 ng/ml
# Read-out: 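Imaged Tnf reporter mCherry in nuclei, minus background, normalised per plate to the median and expressed as robust z-scores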
# Scale: Tnf reporter robust z-score: higher = stronger Tnf promoter reporter signal after LPS; Tnf reporter intensity: higher = stronger Tnf promoter reporter signal
# Hit rule: 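Called active when robust z-score is at most -1.3, matching the median of the Tlr4 knock-down control, or over 3; control wells and wells with under 50 cells never active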
# Calls: active = Tnf reporter clearly lowered or raised; inactive = no clear change in Tnf reporter
# In all, the deposit lists about 17,000 reagents; below is an unselected part. About 1,110 of them (6.6%) count as active. 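Active means lowered or raised reporter signal; replicate intensities are raw and not normalised per plate.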 Unmarked entries are inactive. A reagent listed more than once was tested more than once; the source does not tell the runs apart.
gene symbol,PubChem SID,Tnf reporter robust z-score,fewer than 50 cells in well,"Tnf reporter intensity, replicate 1","Tnf reporter intensity, replicate 2"
Mrps23,SID315472113,0.98,enough cells in well,367,104
Gmds,SID315478176,1.35,enough cells in well,394,214
Klra19,SID315476015,0.38,enough cells in well,248,185
Sh2b2,SID315470232,-1.5 (active),enough cells in well,67.8,82
Clec12a,SID315478987,-1.12,enough cells in well,134,87.1
Oard1,SID315476564,-1.32 (active),enough cells in well,90,128
Pcdhb15,SID315475998,-0.19,enough cells in well,179,84.7
Cbx7,SID315470986,0.48,enough cells in well,207,213
Stam,SID315469481,0.07,enough cells in well,260,242
Snhg16,SID315472346,,fewer than 50 cells per well; well left out of calls,101,40.8
Fgf2,SID315466668,-1.17,enough cells in well,167,133
Agtr1b,SID315465353,0.23,enough cells in well,206,363
Efhd1,SID315476127,-1.96 (active),enough cells in well,69,29.2
Fancg,SID315472030,-0.01,enough cells in well,254,202
Hbb-y,SID315467153,-0.96,enough cells in well,168,109
Zfp959,SID315478384,-0.51,enough cells in well,151,193
Dnm1,SID315466357,-0.87,enough cells in well,120,89.4
Slc25a5,SID315465419,0.38,enough cells in well,212,183
Cep83os,SID315473190,,fewer than 50 cells per well; well left out of calls,191,68.1
Rangrf,SID315471827,1.44,enough cells in well,193,192
Ppil1,SID315473643,0.01,enough cells in well,243,197
A730045E13Rik,SID315477563,1.16,enough cells in well,215,239
Slc25a3,SID315468493,0.63,enough cells in well,121,124
Arhgef1,SID315467734,-1.4 (active),enough cells in well,92.7,85.2
Hmgcs2,SID315467227,0.59,enough cells in well,284,226
Cyp2d9,SID315466235,,fewer than 50 cells per well; well left out of calls,142,138
Ermn,SID315475507,0.26,enough cells in well,169,186
Mon1b,SID315480915,0.72,enough cells in well,214,188
Serpinb9f,SID315469411,,fewer than 50 cells per well; well left out of calls,97.1,64.1
Map7d3,SID315481420,-0.18,enough cells in well,183,123
B4galt3,SID315471773,-0.17,enough cells in well,196,193
Ntan1,SID315468257,1.11,enough cells in well,273,194
Taf7,SID315470315,0.34,enough cells in well,211,180
Rft1,SID315481476,3.29 (active),enough cells in well,406,333
Erlin2,SID315479757,-0.17,enough cells in well,196,193
Mtrr,SID315477622,0.12,enough cells in well,301,191
Emc10,SID315473867,,fewer than 50 cells per well; well left out of calls,108,87.1
Htr2b,SID315467341,,fewer than 50 cells per well; well left out of calls,156,58.3
Npr2,SID315478763,0.55,enough cells in well,207,214
Npr2,SID315478763,1.43,enough cells in well,307,158
Mab21l4,SID315474358,,fewer than 50 cells per well; well left out of calls,118,79.1
Or4k48,SID315480515,0,enough cells in well,200,107
Or10j2,SID315480301,1.45,enough cells in well,374,140
Fbln2,SID315466633,1.93,enough cells in well,373,250
Rab20,SID315468850,-0.43,enough cells in well,296,155
Usp5,SID315469919,-0.62,enough cells in well,167,199
AF085738 (retired record),SID315477380,-0.88,enough cells in well,140,137
Acta2,SID315465275,0.38,enough cells in well,240,102
Acta2,SID315465276,-0.72,enough cells in well,99.8,130
Nfat5,SID315471240,-0.47,enough cells in well,165,220
Itpr1,SID315467537,-1.25,enough cells in well,126,96
Tmtc2,SID315481006,-1.36 (active),enough cells in well,99.6,100
Tmtc2,SID315481007,,fewer than 50 cells per well; well left out of calls,76.1,87.7
Bicdl2,SID315477760,1.76,enough cells in well,159,264
Cyp2c29,SID315466229,1.72,enough cells in well,327,242
Or1j14,SID315480569,0.29,enough cells in well,216,120
Zdhhc3,SID315473702,,fewer than 50 cells per well; well left out of calls,55.4,104
Ikzf3,SID315470156,0.07,enough cells in well,225,248

Quoted from above for reference:
gene symbol,PubChem SID,Tnf reporter robust z-score,fewer than 50 cells in well,"Tnf reporter intensity, replicate 1","Tnf reporter intensity, replicate 2"
Nfat5,SID315471240,-0.47,enough cells in well,165,220
Itpr1,SID315467537,-1.25,enough cells in well,126,96
Tmtc2,SID315481006,-1.36 (active),enough cells in well,99.6,100
